The values that follow come from paper PMC9462498.

Sequences of proteins named here, by UniProt entry; tags and fusion partners are left off. Residues count along the entry.
UniProt P09055, residues 21-798: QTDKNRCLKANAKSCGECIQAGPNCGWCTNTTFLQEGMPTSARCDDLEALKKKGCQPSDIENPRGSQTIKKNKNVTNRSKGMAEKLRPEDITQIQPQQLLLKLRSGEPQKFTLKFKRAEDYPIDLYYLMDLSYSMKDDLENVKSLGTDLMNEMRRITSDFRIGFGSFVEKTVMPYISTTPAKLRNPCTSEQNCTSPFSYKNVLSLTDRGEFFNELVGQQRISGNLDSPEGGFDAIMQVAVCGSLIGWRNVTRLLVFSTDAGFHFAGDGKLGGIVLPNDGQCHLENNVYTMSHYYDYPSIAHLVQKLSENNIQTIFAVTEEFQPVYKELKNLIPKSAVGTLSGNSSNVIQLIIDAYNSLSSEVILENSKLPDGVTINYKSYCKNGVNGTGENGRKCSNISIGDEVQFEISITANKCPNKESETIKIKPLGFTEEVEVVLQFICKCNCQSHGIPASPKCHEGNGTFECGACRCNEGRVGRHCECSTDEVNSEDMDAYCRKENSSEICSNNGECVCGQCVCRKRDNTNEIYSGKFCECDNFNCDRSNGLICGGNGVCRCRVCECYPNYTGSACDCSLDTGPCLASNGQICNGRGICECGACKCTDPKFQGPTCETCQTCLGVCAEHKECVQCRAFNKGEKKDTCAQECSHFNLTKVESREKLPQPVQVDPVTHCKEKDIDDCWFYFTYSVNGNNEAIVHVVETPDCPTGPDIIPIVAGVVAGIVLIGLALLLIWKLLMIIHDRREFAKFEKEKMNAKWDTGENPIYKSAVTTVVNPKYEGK

Experiment [1] addresses T1, Semaphorin 7A (Sema7a), wild type, mouse (mouse (endogenous in mouse liver)) (UniProt Q9QUR8).
T1 sequence (chain, N-glycosylated (~130 kDa band)): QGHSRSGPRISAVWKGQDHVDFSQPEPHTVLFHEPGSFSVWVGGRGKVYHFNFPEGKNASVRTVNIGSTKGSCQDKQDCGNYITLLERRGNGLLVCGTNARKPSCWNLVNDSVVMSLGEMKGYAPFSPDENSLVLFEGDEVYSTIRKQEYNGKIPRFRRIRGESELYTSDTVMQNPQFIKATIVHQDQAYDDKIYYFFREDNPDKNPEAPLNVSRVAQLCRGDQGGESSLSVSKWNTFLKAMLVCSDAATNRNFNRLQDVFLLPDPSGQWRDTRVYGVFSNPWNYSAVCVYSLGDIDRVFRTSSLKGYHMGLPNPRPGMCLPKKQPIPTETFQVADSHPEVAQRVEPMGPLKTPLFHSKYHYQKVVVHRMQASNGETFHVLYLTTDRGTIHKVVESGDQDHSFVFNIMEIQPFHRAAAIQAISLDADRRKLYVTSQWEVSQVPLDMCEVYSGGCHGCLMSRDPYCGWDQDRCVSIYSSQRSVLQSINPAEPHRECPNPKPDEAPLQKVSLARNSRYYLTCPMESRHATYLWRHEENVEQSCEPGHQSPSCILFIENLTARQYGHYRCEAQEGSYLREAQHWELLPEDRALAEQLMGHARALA
The experiment can be described thus: co-IP; anti-Sema7a precipitation from liver tissues of 10-week-old male WT and Sema7a^R145W homozygous mice; blots for integrin β1 and PKC-α.

The target of experiment [2] is T2, Semaphorin 7A R145W mutant (Sema7a^R145W), mouse (mouse (endogenous in mouse liver and primary hepatocytes)) (UniProt Q9QUR8).
T2 sequence (chain, N-glycosylated (~130 kDa band)): T1 sequence (chain, N-glycosylated (~130 kDa band)) with R101W
The description is as above.

Positions count from the first letter of the chain named. Results are given in words; binding and its absence hold for the method and conditions named. In cells and extracts the contact can be indirect. Some binding calls cover weakened binding; strength is not graded here.

Consider “integrin β1, mouse (from UniProt P09055 21-798) (receptor)”, for which the binding result in experiment [1] and in experiment [2] was “binds” in each case.
